Earlier results in EP2549976B1, “SKIN-FRIENDLY ACTIVE INGREDIENT COMBINATION TO COMBAT ACNE” (Beiersdorf AG, priority 2010, dated 2011).
At least one structure is not confirmed: it was looked up by name or label, or the drawing left a doubt.

Tested on: P. acnes
Settings: gegenüber P. acnes; cited from earlier work

Structure (SMILES): CCC[C@@H]1C[C@@H](C(=O)N[C@@H]([C@H]2O[C@H](SC)[C@H](O)[C@@H](O)[C@H]2O)[C@H](C)Cl)N(C)C1 [Clindamycin]
- MHK-Werte: < 1 pmm
